Results taken from PubChem BioAssay AID1347075 (National Center for Advancing Translational Sciences (NCATS), 2019).
The campaign covered roughly 400,000 compounds. About 5,500 (1.4%) were called active. The inconclusive results got no clear call from the source; some entries with a clear call stand among them for comparison. Calls follow the shape of the dose curve; as a rule, active = well fitted cell-killing curve with a large enough effect; inconclusive = small, poorly fitted or top-dose-only effect, or effect the other way; inactive = flat fitted curve, though single readings scatter. A potency beside an inconclusive call is a rough fit, not a confirmed value.

Experiment: qHTS assay for MDR1-selective chemotherapeutics: Primary screen using the parental adenocarcinoma cell KB-3-1; also: nearly all actives have a fitted effect of over 60% in size
Details: KB-3-1 viability, CellTiter-Glo ATP luminescence, 72 h; activity change, negative = cytotoxic: at 46.1 µM (top of the series)
How it was run: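 KB-3-1 cells, DMEM (no phenol red) + 10% FBS; compound by pin transfer, 72 h, 37 °C. Readout: CellTiter-Glo luminescence after 10 min. Data normalized, curve-fitted.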
% is scaled to controls: 0 for no effect and ±100 for the full control effect; potency is read from the fitted curve at half-maximal effect.

| Compound | Potency | activity change, negative = cytotoxic |
| --- | --- | --- |
| Nc1nc(CCl)nc(Nc2ccc3ccccc3c2)n1 | inconclusive: 29.1 µM [cytotoxic, single point] |  |
| COc1ccc(CNC(=O)Cc2csc3nc(-c4ccc(F)cc4)cn23)cc1 |  | inactive: -1.53% |
| Cc1[nH]n2c(=O)c3c(nc2c1-c1ccc(Cl)cc1)CCC3 | active: 8.2 µM |  |
| Cc1ccccc1NS(=O)(=O)c1ccc(C(=O)NCC2(N3CCOCC3)CCCCC2)cc1 |  | inactive: -7.67% |
| C=CCn1c(SCC(=O)c2[nH]c(C)c(C(=O)OCC)c2C)nc2scc(-c3ccc(OC)cc3)c2c1=O | active: 4.61 µM |  |
| Cc1noc(C)c1CSc1nc2ccccc2nc1NS(=O)(=O)c1ccc(Cl)cc1 | inconclusive: 20.6 µM [cytotoxic, single point] |  |
| C=C[C@@H]1c2ccccc2N(S(=O)(=O)c2ccc(C)cc2)[C@H](c2ccccc2C(F)(F)F)C1(C#N)C#N | inconclusive: 23.1 µM [cytotoxic, partial curve] |  |
| Cc1ccc(-n2c(SCC(=O)N3c4ccccc4Sc4ccccc43)nnc2-c2ccncc2)cc1 | inconclusive: 16.4 µM [cytotoxic, partial curve] |  |
| COc1ccc(C2CC(=O)N(CC(=O)Nc3ccc(C)c(Cl)c3)c3ccccc3S2)cc1OC (stereo not given) | inconclusive: 29.1 µM [cytotoxic, single point] |  |
| O=C(Nc1cccc(Cl)c1)Nc1nnc(CC2=CCCCC2)s1 | active: 23.1 µM |  |
| COc1ccc(-c2nc(SCC(=O)NC3CCCC3)c(-c3ccc(C)cc3)[nH]2)cc1OC |  | inactive: -10.4% |
| CCOc1ccc(NC(=O)C(=O)NCC(c2cccnc2)N2CCc3ccccc32)cc1 (stereo not given) | inconclusive: 5.17 µM [cytotoxic, full curve] |  |
| COc1ccc(N(Cc2cccs2)C(=O)Nc2cccc(Cl)c2)cc1 |  | inactive: -0.0916% |
| CCOC(=O)C1CCCN(S(=O)(=O)c2ccc3c(c2)oc(=O)n3C)C1 (stereo not given) | inconclusive: 29.1 µM [cytotoxic, single point] |  |
| CC[C@]12c3[nH]c4cc(CCC(=O)N(C)C)ccc4c3CCN1C(=O)[C@@H](CC(=O)NCCCOC)C[C@@H]2C(=O)N1CCN(C(=O)c2ccco2)CC1 |  | inactive: 0.042% |
| CC(C)(C)c1csc(NNC(=O)c2ccc(Br)cc2)n1 | inconclusive: 23.1 µM [cytotoxic, single point] |  |
| Cc1cc(C)c(S(=O)(=O)Nc2ccc3oc4c(c3c2)C(=O)CC(C)(C)C4)cc1C |  | inactive: -8.42% |
| CC(=O)c1cccc(NC(=O)c2ccc(N(Cc3ccccc3)S(C)(=O)=O)cc2)c1 | inconclusive: 29.1 µM [cytotoxic, single point] |  |
| O=C(c1ccc(Br)cc1)N(Cc1cccs1)c1ccc(F)cc1 |  | inactive: 1.61% |
| CN1CCN(C(=O)Cn2ncc3c4ccccc4n(Cc4ccc(F)cc4)c3c2=O)CC1 |  | inactive: -15.5% |
| CCOc1ccc(Br)cc1/C(C)=N\NC1=NCCN1 | active: 6.51 µM |  |
| COCCNC(=O)Cn1cc(S(=O)(=O)N2CCN(c3ccccc3F)CC2)c2ccccc2c1=O |  | inactive: -6.7% |
| CC1c2cc3c(cc2CCN1C(=O)c1cccc(F)c1)OCCCO3 (stereo not given) | inconclusive: 25.9 µM [cytotoxic, single point] |  |
| CC(=O)Oc1ccc(CN2C(=O)C(CCc3ccccc3)ON=C2c2cnccn2)cc1 (stereo not given) |  | inactive: 10.1% |

| Compound | Potency | activity change, negative = cytotoxic |
| --- | --- | --- |
| C=CC[n+]1c(-c2ccc(OCC)cc2)csc1NNC(=O)Nc1ccccc1 | active: 18.4 µM |  |
| Cc1cccn2c(=O)c(/C=C(\C#N)c3nc4ccccc4s3)c(Oc3ccc(F)cc3)nc12 | inconclusive: 23.1 µM [cytotoxic, single point] |  |
| COc1ccccc1C(c1nnnn1Cc1ccccc1)N1CCN(c2nc3ccccc3s2)CC1 (stereo not given) |  | inactive: -5.52% |
| CC1CCN(S(=O)(=O)c2ccc(C(=O)Nc3nnc(C4=COCCO4)o3)cc2)CC1 | inconclusive: 23.1 µM [cytotoxic, partial curve, poor fit] |  |
| CCCOc1ccc(C2NC(=S)NC(c3ccccc3)=C2C(=O)Nc2ccc(C)cc2)cc1OC (stereo not given) |  | inactive: 6.07% |
| CCN1C(=O)[C@@H]2Cc3c([nH]c4ccccc34)C(c3cc(OC)c(OC)c(OC)c3)N2C1=S (stereo not given in full) | inconclusive: 29.1 µM [cytotoxic, single point] |  |
| COc1ccc(C(=O)Nc2scc(-c3ccc(Cl)cc3Cl)c2C(N)=O)cc1 | inconclusive: 29.1 µM [cytotoxic, single point] |  |
| Cc1cnc2c(C)cccc2c1/C=C/c1ccc(N(C)C)cc1 | inconclusive: 18.4 µM [rising, partial curve, poor fit] |  |
| COc1ccc(OC)c(S(=O)(=O)NCc2nc3nc(C)cc(C)n3n2)c1 |  | inconclusive: -1.41% |
| CCC(=O)Nc1nc2ccc(NC(=O)c3cc(OC)c(OC)c(OC)c3)cc2s1 |  | inactive: 23% |
| CC(C)CC(=O)NC(=S)NNC(=O)c1cccc([N+](=O)[O-])c1 | inconclusive: 29.1 µM [cytotoxic, single point] |  |
| CCc1nnc(N/N=C\c2ccc(OC(C)=O)c(OC)c2)n1N |  | inactive: 2.83% |
| COc1cccc(/C=N/Nc2ncnc3scc(-c4ccccc4)c23)c1O | inconclusive: 2.06 µM [cytotoxic, full curve] |  |
| CC(=O)c1cc2c(cc1NC(=O)Cn1nc(-c3ccc(C)cc3)ccc1=O)OCO2 | active: 23.1 µM |  |
| N/C(=N\OS(=O)(=O)c1ccc(Br)cc1)c1ccncc1 |  | inconclusive: 28% |
| CCOc1ccc(NC(=O)COc2ccc(C(=O)NC3CCCc4ccccc43)cc2OC)cc1 (stereo not given) | inconclusive: 23.1 µM [cytotoxic, partial curve] |  |
| c1ccc(N2CCN(CC3CCCCC3)CC2)cc1 |  | inactive: -0.72% |
| CC(C)(C)C(=O)COC(=O)CCc1nc2ccccc2[nH]c1=O | inconclusive: 29.1 µM [rising, single point] |  |
| CCOc1ccc(CN2CCc3nc(N4CCN(c5ccccn5)CC4)ncc3C2)cc1OC | inconclusive: 20.6 µM [cytotoxic, single point] |  |
| COc1ccc(C(C)=NNS(=O)(=O)c2ccc(C)cc2)cc1OC |  | inactive: 5.38% |
| C=C1C(=O)OC2C1CCC(C)=C1C(=O)C3OC3(C)C12 (stereo not given) | inconclusive: 23.1 µM [cytotoxic, single point] |  |
| O=C(COC(=O)c1n[nH]c(=O)c2ccccc12)c1ccc(Br)cc1 | inconclusive: 29.1 µM [rising, single point] |  |
| COc1ccc(CN(C)C(=O)C(Cc2ccccc2)NC(=O)c2ccccc2)cc1F (stereo not given) | inconclusive: 16.4 µM [cytotoxic, partial curve, poor fit] |  |
| CN(C)c1cccc(/C=C(\C#N)c2ccccc2)c1 | active: 5.8 µM |  |

An excerpt from above in order of molecular weight, rising:

| Compound | Potency | activity change, negative = cytotoxic |
| --- | --- | --- |
| CC(=O)c1cc2c(cc1NC(=O)Cn1nc(-c3ccc(C)cc3)ccc1=O)OCO2 | active: 23.1 µM |  |
| CCN1C(=O)[C@@H]2Cc3c([nH]c4ccccc34)C(c3cc(OC)c(OC)c(OC)c3)N2C1=S (stereo not given in full) | inconclusive: 29.1 µM [cytotoxic, single point] |  |
| COc1ccccc1C(c1nnnn1Cc1ccccc1)N1CCN(c2nc3ccccc3s2)CC1 (stereo not given) |  | inactive: -5.52% |

(listing goes on)

| Compound | Potency | activity change, negative = cytotoxic |
| --- | --- | --- |
| COC(=O)Cn1ccc(N(C)C)c(C#N)c1=O |  | inactive: 5.26% |
| Cc1cc(C)cc(C(=O)N2CC(=O)Nc3ccc(Br)cc3C2c2ccccc2)c1 (stereo not given) | inconclusive: 29.1 µM [cytotoxic, single point] |  |
| COc1cc(NS(=O)(=O)c2ccc(C)cc2C)cc(OC)c1OC | inconclusive: 18.4 µM [cytotoxic, single point] |  |
| COc1ccc(C2NC(=O)c3ccccc3N2)c(OC)c1OC (stereo not given) | inconclusive: 5.17 µM [cytotoxic, full curve] |  |
| CCCCc1ccc(NC(=O)CSC2=C(C#N)C(c3ccco3)C3=C(CCCC3=O)N2)cc1 (stereo not given) | inconclusive: 29.1 µM [cytotoxic, single point] |  |
| COCCNc1nc(NCC2CCCCC2)c2sc(-c3ccccc3)cc2n1 | inconclusive: 29.1 µM [cytotoxic, single point] |  |
| Cc1ccc(OCCOCCn2c(-c3ccc(Cl)cc3)nc3ccccc3c2=O)cc1 |  | inactive: -1.33% |
| CO[C@H]1CN(C)C(=O)c2cc(NC(=O)C3CCOCC3)ccc2OC[C@H](C)N(Cc2nccs2)C[C@H]1C | inconclusive: 0.291 µM [rising, full curve] |  |
| COc1cc(C(=O)N2CCCCC2c2cc(C(=O)N3CCOCC3)no2)cc(OC)c1C (stereo not given) |  | inconclusive: -48.6% |
| CCOC(=O)CC(NC(=O)c1cccc2c1C(=O)N(Cc1cccnc1)C2)c1ccc(OCC)c(OC)c1 (stereo not given) |  | inactive: -13.7% |
| Nc1cc(=O)[nH]c(SCCSc2ccc(F)cc2)n1 | inconclusive: 3.66 µM [cytotoxic, partial curve, poor fit] |  |
| CCCCNC(=O)c1ccc(SCC(=O)N(CC)CC)c([N+](=O)[O-])c1 | inconclusive: 29.1 µM [rising, single point] |  |
| CS(=O)(=O)N1CCN(C(=S)NCc2ccc(F)cc2)CC1 | inconclusive: 29.1 µM [rising, single point] |  |
| CC1(C)CC(N2CCCCC2)=CC(=[N+]2CCCCC2)C1 | active: 5.8 µM |  |
| Cn1c(=O)n(CC(=O)NCC2CCCO2)c(=O)c2c3c(sc21)CCCC3 (stereo not given) |  | inactive: -4.35% |
| O=C(CNCc1cccs1)Nc1cc(S(=O)(=O)N2CCCC2)ccc1Cl | inconclusive: 0.0046 µM [cytotoxic, full curve, poor fit] |  |
| O=C(N/N=C/c1cccs1)c1ccc2ccccc2c1 | active: 20.6 µM |  |
| Cc1nn(C)c(C)c1S(=O)(=O)N(CC(=O)N1CCc2ccccc2C1)c1ccc(C(C)C)cc1 | inconclusive: 29.1 µM [cytotoxic, single point] |  |
| CCN(CC)C(=O)c1sc(NC(=O)c2cccc([N+](=O)[O-])c2)c(C#N)c1C | inconclusive: 18.4 µM [cytotoxic, single point] |  |
| CC(C)C[C@H]1CN([C@@H](Cc2ccccc2)CN2CCC[C@H]2CN2C(=O)C(=O)NC[C@@H]2Cc2ccc(O)cc2)C(=O)C(=O)N1CC1CCCCCC1 | inconclusive: 29.1 µM [cytotoxic, single point] |  |
| COCCCNc1nc2ccccc2nc1NS(=O)(=O)c1ccc(OC)cc1 |  | inactive: 4.05% |
| CC(C)C1OC(c2cccc(NC(=O)c3cccs3)c2)OCC1(C)C (stereo not given) | inconclusive: 18.4 µM [cytotoxic, single point] |  |
